This experiment has as its target 1385-463 (whole length human PAD2 without the catalytic site) (human) (UniProt Q9Y2J8). The experiment in a line: western blotting. A general note: Immunoblotting shows a protein as a band on a membrane.

Protein sequences, listed by entry. Tags and fused reporters are not part of them. Lines headed by an entry give the natural chain unless they say otherwise; changes in a name come on top.
UniProt Q9Y2J8: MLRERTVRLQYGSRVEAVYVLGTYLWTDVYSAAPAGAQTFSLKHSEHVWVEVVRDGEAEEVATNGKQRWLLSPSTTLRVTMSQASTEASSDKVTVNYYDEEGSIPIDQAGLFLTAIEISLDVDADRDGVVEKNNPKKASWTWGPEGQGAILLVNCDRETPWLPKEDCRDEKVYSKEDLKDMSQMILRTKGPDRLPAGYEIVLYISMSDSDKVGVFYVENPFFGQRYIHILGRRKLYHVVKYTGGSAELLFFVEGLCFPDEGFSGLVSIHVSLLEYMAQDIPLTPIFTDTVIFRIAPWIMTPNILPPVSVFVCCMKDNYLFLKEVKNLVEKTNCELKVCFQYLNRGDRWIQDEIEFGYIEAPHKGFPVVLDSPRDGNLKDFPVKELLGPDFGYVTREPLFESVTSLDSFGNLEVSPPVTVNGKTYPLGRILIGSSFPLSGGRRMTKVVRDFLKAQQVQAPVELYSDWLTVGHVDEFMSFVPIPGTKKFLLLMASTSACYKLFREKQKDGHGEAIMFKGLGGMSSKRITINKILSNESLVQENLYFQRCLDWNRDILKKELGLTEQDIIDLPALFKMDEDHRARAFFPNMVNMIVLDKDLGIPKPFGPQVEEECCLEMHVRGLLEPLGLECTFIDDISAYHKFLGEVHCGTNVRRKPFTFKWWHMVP

The values that follow come from patent US20150376294A1 (RIGSHOSPITALET, published 2015).

No constants are given. Whether binding was seen depends on the method and setting. Some results given as binding are weak or reduced against the parent protein; the word gives no strength.

B1: mAb #2 (antibody, V domains shown)
VH: QVQLQQPGAELVRPGASVKLSCKASGYTFTSYWMNWVKQRPGQGLEWIGMIDPSDSESYYNQMFKDKATLTVDKSSSTAYMQLSRLTSEDSAVYYCARKDYYAYGGAMDYWGQGTSVTVSS
VL: QIVLTQSPAILSASLGEEITLTCSANSSARYMHWYQQKSGTSPKLLIYSTSNLASGVPSRFSGSGSGTFYSLTLSSVEAEDAADYYCHQWSGYPTFGGGTKLEIKR
notes: Mouse IgG monoclonal antibody, unknown subtype; raised against rabbit PAD2
B1: the binding result is listed as “binds”.
